Results reported in publication PMC12520511.
These are yes or no findings as the source states them, for the method shown. In cells and extracts the contact can be indirect. Some results given as binding are weak or reduced against the parent protein; the word gives no strength.

Amino acid sequences for entries named in this document (tags omitted).
UniProt P35222: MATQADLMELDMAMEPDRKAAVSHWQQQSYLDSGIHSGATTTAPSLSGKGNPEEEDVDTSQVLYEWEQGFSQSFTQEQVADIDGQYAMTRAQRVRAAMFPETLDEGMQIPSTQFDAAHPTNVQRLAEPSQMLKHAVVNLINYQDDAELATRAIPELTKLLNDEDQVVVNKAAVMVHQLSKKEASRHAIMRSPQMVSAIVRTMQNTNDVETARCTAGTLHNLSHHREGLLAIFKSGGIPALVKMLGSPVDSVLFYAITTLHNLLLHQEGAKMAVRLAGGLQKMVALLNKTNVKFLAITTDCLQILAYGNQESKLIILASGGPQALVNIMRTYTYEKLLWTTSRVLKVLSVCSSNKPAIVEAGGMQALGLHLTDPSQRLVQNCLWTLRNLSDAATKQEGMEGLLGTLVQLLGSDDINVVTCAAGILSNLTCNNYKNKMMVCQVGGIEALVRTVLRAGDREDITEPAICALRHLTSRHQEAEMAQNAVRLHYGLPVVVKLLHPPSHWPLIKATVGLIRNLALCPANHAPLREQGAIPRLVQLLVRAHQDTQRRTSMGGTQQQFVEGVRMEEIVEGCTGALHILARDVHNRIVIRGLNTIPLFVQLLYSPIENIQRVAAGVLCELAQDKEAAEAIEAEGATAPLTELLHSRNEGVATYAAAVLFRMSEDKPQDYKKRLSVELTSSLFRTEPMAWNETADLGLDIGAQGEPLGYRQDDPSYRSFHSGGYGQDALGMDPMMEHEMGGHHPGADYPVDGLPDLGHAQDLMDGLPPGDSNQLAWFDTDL
UniProt P40227: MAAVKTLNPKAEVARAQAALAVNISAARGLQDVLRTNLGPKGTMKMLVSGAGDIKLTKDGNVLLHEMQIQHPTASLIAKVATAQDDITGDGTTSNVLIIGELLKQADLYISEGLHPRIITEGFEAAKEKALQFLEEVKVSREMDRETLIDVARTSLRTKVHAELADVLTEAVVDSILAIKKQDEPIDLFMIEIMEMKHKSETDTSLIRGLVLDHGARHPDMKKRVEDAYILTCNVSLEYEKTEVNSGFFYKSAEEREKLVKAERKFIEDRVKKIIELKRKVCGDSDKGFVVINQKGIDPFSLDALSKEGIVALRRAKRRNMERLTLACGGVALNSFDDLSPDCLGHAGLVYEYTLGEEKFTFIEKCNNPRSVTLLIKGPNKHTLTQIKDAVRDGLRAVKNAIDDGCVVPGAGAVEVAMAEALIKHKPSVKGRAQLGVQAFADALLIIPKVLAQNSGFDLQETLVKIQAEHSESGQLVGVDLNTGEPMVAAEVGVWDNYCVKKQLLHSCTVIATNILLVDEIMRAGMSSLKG
UniProt O15169: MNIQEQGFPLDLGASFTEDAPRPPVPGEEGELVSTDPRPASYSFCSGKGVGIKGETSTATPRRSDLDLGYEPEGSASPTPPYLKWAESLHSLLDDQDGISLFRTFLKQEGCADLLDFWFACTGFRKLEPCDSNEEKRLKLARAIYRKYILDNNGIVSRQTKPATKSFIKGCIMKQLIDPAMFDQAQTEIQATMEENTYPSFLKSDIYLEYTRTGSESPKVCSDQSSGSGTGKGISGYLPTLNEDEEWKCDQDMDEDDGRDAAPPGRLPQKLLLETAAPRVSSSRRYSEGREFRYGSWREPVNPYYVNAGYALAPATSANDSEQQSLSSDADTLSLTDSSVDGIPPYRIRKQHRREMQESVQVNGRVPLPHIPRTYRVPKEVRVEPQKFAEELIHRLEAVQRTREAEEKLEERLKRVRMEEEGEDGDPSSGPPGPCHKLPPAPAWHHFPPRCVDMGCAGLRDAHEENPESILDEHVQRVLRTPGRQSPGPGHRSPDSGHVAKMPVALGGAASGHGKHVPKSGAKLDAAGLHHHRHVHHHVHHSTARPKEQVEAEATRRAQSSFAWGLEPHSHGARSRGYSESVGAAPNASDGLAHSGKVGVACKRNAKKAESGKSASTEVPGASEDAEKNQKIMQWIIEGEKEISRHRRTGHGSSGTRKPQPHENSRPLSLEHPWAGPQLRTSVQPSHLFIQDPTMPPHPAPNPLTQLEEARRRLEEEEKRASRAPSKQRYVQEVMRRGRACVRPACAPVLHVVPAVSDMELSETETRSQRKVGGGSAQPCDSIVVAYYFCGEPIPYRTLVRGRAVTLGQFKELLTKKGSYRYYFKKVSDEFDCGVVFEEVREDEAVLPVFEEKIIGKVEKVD

How the values were obtained:
[1] = molecular target: β‐catenin (human (endogenous in HGC-27 and MKN-45)) (UniProt P35222); experiment: co-IP; β-catenin with endogenous AXIN1, DVL and GSK3β in HGC-27 cells co-cultured with CAFs, upon CCT6A overexpression; Western blot
Flag‐tagged CCT6A = Flag‐tagged CCT6A (UniProt P40227); experiment: co-IP; HGC-27 and MKN-45 cells co-cultured with CAFs and expressing Flag-tagged CCT6A; IP lysis buffer, anti-CCT6A overnight at 4 °C, protein A/G beads, Western blot

binding [1]	binding (Flag‐tagged CCT6A)	Substance
binds	–	AXIN1 (from UniProt O15169 1-862)
–	binds	β‐catenin (from UniProt P35222 1-781)
